{
  "source": "paper doi:10.1101/2023.03.07.531595",
  "molecular_target": "T1, Tld1-mNeonGreen (Saccharomyces cerevisiae) (UniProt Q05611)",
  "T1 sequence": "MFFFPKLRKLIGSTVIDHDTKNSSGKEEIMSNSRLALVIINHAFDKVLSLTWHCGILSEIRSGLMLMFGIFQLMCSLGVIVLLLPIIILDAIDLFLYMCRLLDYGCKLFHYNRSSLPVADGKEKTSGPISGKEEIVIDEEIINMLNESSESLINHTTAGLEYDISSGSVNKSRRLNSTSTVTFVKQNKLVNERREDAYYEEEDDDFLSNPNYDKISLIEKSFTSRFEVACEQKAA",
  "assay": "co-IP",
  "note": "These are yes or no findings as the source states them, for the method shown. In cells and extracts the contact can be indirect. Tags and fused reporters may be left off the sequences shown.",
  "data": [
    {"binder": "Tgl3-3xHA (enzyme, UniProt P40308 1-642) MKETAQEYKVSAVIPTLLKNWILRVVYATLDHIPPFVWEILHVITDIYFFWVQKLINYVRPHSRVIYYNAIKKLDECDTYQMWCQQASVVDEITGANLWRRNFFSRRYDFNSVIEQYSILENMLREEKYDVVKEKFSTTGPCMLRNFAGIGDKKLFTKSLMGTKLLIEQYLTRILEGLDILNNQTLTPTSFFQRCKLSLGTTALILQGGSLFGLFHLGVIRGLLLQDLMPNIISGSSMGACVASLFGCLSNEQLKQLLTDDNLLNIIKNDVDLLKSCGYGNLEQHLNLGTLIQNLIHHGYSQDVYLFIRFVMKYIVKEKTFEEVYQITGKVFNIVIHPTDKSCPNLLNYVTTPNVLIKSAIECSLGSGVISEDTSLLCKNLENEIEPFLNINKNKQVKFLTPENANNPSITESPYTRLTELFNVNNFIVSLARPYLAPLVVNDLKHEIKTSKYYYYKHYPNMPPINANTVRKTQRSSSQSPIKAGTVEDLEPEPLMSPVPPSSAVNDSAEYIIPELGIPQLNFTEMEPLAFKFKYHLERKLKNIATMEFRHRMEVLDNLGLLCSLIKRLIIDEKTPRSATEIAVVPRMKSLSLTRIIEGQLNNIPYWIKSGERSTWPALALIKTRCAVEFKLDDIIRARRSR", "values": [
      {"measurement": "binding", "result": "no binding"}
    ]}
  ]
}
